Results as given in PubChem BioAssay AID504847 (National Center for Advancing Translational Sciences (NCATS), 2011).
Values joined by “and” are separate entries in the source; they are usually repeats but may differ in a detail not shown here. Equal values may be shown once. The campaign covered roughly 400,000 compounds. About 3,700 (0.93%) were called active. The inconclusive results got no clear call from the source; some entries with a clear call stand among them for comparison. Calls come from the whole dose curve; as a rule, active = well fitted inhibition curve with a large enough effect; inconclusive = small, poorly fitted or top-dose-only effect, or another doubt; inactive = no such curve, though single readings can be large or run the other way. A potency beside an inconclusive call is a rough fit, not a confirmed value.

The chains behind the UniProt entries cited, without tags or fusion partners. Where a name states a change or a piece, a line headed by the entry shows the natural chain unless it says otherwise.
UniProt P11473: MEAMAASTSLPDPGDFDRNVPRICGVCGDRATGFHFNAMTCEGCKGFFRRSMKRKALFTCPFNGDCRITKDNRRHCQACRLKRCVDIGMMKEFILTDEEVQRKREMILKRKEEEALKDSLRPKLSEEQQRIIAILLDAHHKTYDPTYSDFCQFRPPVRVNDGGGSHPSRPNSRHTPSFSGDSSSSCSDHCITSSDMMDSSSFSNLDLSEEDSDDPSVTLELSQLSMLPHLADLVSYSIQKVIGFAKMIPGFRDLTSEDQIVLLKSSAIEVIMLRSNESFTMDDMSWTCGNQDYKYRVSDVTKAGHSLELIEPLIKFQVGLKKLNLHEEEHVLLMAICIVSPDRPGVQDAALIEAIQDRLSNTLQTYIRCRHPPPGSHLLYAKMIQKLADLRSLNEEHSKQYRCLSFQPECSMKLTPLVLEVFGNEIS

Molecular target: Vitamin D3 receptor (Homo sapiens) (UniProt P11473)
Assay: Inhibitors of the vitamin D receptor (VDR): qHTS
Conditions: VDR-SRC2-3 peptide fluorescence polarization, 2 h; max response, negative = inhibition: hits give low values
Method in brief: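 Reagent solutions, kept cold and dark, are dispensed first; compounds are then pinned in at 23 nl, plates briefly spun, and incubated 2 h at ambient temperature. Inhibition of VDR–SRC2-3 peptide binding is read by fluorescence polarization.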
% is set by controls: 0 for no effect and ±100 for the full control effect; potency is the fitted concentration of half-maximal effect.

Row | SMILES | Potency | max response, negative = inhibition
1 | CCn1c(Oc2ccccc2)nc2c1c(=O)n(C)c(=O)n2C | inconclusive: 39.8 µM [inhibitor, partial curve, poor fit] | –
2 | O=C(Nc1nc2c(F)c(F)c(F)cc2s1)c1ccco1 | – | inactive: -20.6%
3 | CC(NC(=O)c1ccc(F)cc1F)C1CC2CCC1C2 (configuration not stated) | – | inactive: 17%
4 | COC1=C(N)C(=O)c2nc(-c3nc(C(=O)O)c(C)c(-c4ccc(OC)c(OC)c4O)c3N)ccc2C1=O | active: 14.1 µM | –
5 | COc1cc(OC)c(C2CC(=O)N3CN(C)CSC3=C2C#N)cc1OC (configuration not stated) | inconclusive: 56.2 µM [inhibitor, partial curve, poor fit] | –
6 | O=C(Nc1cccc(Cl)c1)N1CCCC1 | active: 17.8 µM | –
7 | C=CCN1C(=O)/C(=C/C(=O)OC)S/C1=N\NC(=O)c1ccccc1 | inconclusive: 50.1 µM [inhibitor, partial curve, poor fit] | –
8 | COc1ccc(CC2=CC(=O)c3ccccc3C2=O)cc1 | active: 20 µM | –
9 | Cc1ccnc(NC(c2ccsc2)c2ccc3ccc(C)nc3c2O)c1 (configuration not stated) | active: 39.8 µM | –
10 | CC(=O)n1nc(-c2ccc(C)cc2)nc1NCc1ccco1 | inconclusive: 89.1 µM [inhibitor, single point] | –
11 | COC(=O)CCCSc1nccn1-c1ccccc1 | – | inactive: -20.1%
12 | COC(=O)c1ccccc1NC(=O)c1cc2c(s1)-c1ccccc1OC2 | – | inactive: 5.37%
13 | COc1cc(/C=C/C(=O)Nc2cc(S(=O)(=O)N3CCOCC3)ccc2N2CCCC2)cc(OC)c1OC | inconclusive: 89.1 µM [inhibitor, single point] | –
14 | CCc1ccc(-c2cc(C(=O)Nc3ccc(S(=O)(=O)NC(C)=O)cc3)c3ccccc3n2)cc1 | inconclusive: 11.2 µM [inhibitor, partial curve, poor fit] | –
15 | O=C(NCCCN1CCCCC1)c1ccc2c(=O)n(CCc3ccccc3)c(=O)[nH]c2c1 | – | inactive: -3.6%
16 | Cc1cc(C)c(Cn2c3ccccc3c3cnn(CC(=O)NCc4ccc(Cl)cc4)c(=O)c32)c(C)c1 | – | inactive: 8.58%
17 | Cn1nnnc1Sc1ncnc2scc(-c3cccs3)c12 | inconclusive: 56.2 µM [inhibitor, partial curve, poor fit] | –
18 | Cc1ccc(C(=S)NCS(=O)(=O)c2ccc(C)cc2)cc1 | inconclusive: 89.1 µM [inhibitor, single point] | –
19 | CCN1CCN(c2cc(C)c3cc(NC(=O)c4cccc(Cl)c4)ccc3n2)CC1 | – | inactive: -1.54%
20 | CCCCN(C)C1=CC2=CC(=C(C#N)C#N)CCC2CC1 (configuration not stated) | – | inactive: -12.2%
21 | COC(=O)C1=C(C(=O)OC)SC(=C2C(=S)C(C)(C)N(C(=O)CC(C)C)c3ccccc32)S1 | inconclusive: 56.2 µM [inhibitor, partial curve] | –
22 | COCCCN1C(=O)C(O)=C(C(=O)c2ccc(C)o2)C1c1cccc(Br)c1 (configuration not stated) | inconclusive: 89.1 µM [inhibitor, single point] | –
23 | COc1ccc(Nc2nc(Nc3ccc(OC)cc3)nc(-n3[nH]c(=O)c(C)c3C)n2)cc1 | inconclusive: 70.8 µM [inhibitor, partial curve] | –

Row | SMILES | Potency | max response, negative = inhibition
24 | CCc1ccc(C(=O)CSc2n[nH]c(C)n2)cc1 | inconclusive: 79.4 µM [inhibitor, partial curve, poor fit] | –
25 | O=C1C(Cl)=C(Nc2ccccc2O)C(=O)N1c1ccccc1 | inconclusive: 56.2 µM [inhibitor, partial curve, poor fit] | –
26 | O=C(/C=C/c1ccccc1)CC(O)(c1ccccc1)C(F)(F)C(F)F (configuration not stated) | inconclusive: 22.4 µM [inhibitor, full curve, poor fit] | –
27 | O=C(O)Cc1c(-c2ccccc2Cl)c2cc(Br)ccc2[nH]c1=O | inconclusive: 56.2 µM [inhibitor, partial curve, poor fit] | –
28 | COc1ccc(-c2noc(N3CCC(C(=O)NCc4ccc(F)cc4)CC3)n2)cc1 | – | inactive: -11.9%
29 | O=C(O)/C=C/C(=O)NCc1csc2ccccc12 | – | inactive: -11.3%
30 | Clc1ccccc1OCCCOc1cccc2cccnc12 | inconclusive: 70.8 µM [inhibitor, partial curve, poor fit] | –
31 | C=C(C)C(=O)Nc1cccc(C2=NOC3(C2)C[C@H](C(N)=O)N(C(=O)CC)C3)c1 (some centres not stated) | – | inactive: -22.3%
32 | COc1cccc(C(=O)Oc2ccccc2/C=C\C(=O)c2cc3ccccc3o2)c1 | inconclusive: 89.1 µM [inhibitor, partial curve, poor fit] | –
33 | C/C(=N\NC(N)=S)C1=CCC2C3CC[C@H]4CC(O)CC[C@]4(C)C3CC[C@]12C (some centres not stated) | inconclusive: 89.1 µM [inhibitor, single point] | –
34 | COc1cccc(CNC(=O)CCNS(=O)(=O)c2ccc3c(c2)CC(C)N3C(C)=O)c1 (configuration not stated) | inconclusive: 39.8 µM [inhibitor, single point] | –
35 | C/C(=N\NS(=O)(=O)c1ccc(Br)cc1)c1ccncc1 | inconclusive: 20 µM [inhibitor, full curve, poor fit] | –
36 | CC(NC(=O)C1CCN(C(=O)c2cccs2)CC1)c1ccc(S(N)(=O)=O)cc1 (configuration not stated) | – | inactive: -21.9%
37 | Cc1c(NC(=O)c2cc(-c3ccc(Br)cc3)on2)c(=O)n(-c2ccccc2)n1C | inconclusive: 28.2 µM [inhibitor, partial curve, poor fit] | –
38 | O=[N+]([O-])c1ccc(Cl)c(-c2ccc(/C=N/c3c(-c4ccco4)nc4ccccn34)o2)c1 | inconclusive: 89.1 µM [inhibitor, single point] | –
39 | Cc1cc(C)cc(NC(=O)CN(c2ccc(F)cc2)S(C)(=O)=O)c1 | inconclusive: 28.2 µM [inhibitor, single point] | –
40 | CCC1C(=O)CC(c2ccc([N+](=O)[O-])cc2)NC1c1ccc([N+](=O)[O-])cc1 (configuration not stated) | – | inactive: -21.5%
41 | CC(=O)Oc1ccc(-c2cccc(C(=O)Oc3ccccc3)c2)cc1 | inconclusive: 100 µM [inhibitor, single point] | –
42 | Cc1nn2c(=O)cc(COC(=O)c3ccc(NC(=O)COc4ccc(Cl)cc4)cc3)nc2s1 | – | inactive: 6.81%
43 | CCc1ccc(/C=C2\SC(=S)N(CCCC(=O)Nc3ccccc3C(=O)O)C2=O)cc1 | inconclusive: 89.1 µM [inhibitor, single point] | –
44 | COc1cccc(CC2(CO)CCCN(Cc3ccc(-c4ccco4)cc3)C2)c1 (configuration not stated) | inconclusive: 50.1 µM [inhibitor, partial curve, poor fit] | –
45 | NC(N)=Nc1nc(CSCC/C(N)=N/S(N)(=O)=O)cs1 | inconclusive: 22.4 µM [inhibitor, full curve, poor fit] | –
46 | O=C(Nc1ccc(F)cc1F)N1CCN(c2ncccn2)CC1 | inconclusive: 100 µM [inhibitor, partial curve, poor fit] | –

Row | SMILES | Potency | max response, negative = inhibition
47 | Cc1nn(Cc2ccccc2)c2c1C(c1cccc(Cl)c1)C(C#N)=C(N)O2 (configuration not stated) | inconclusive: 89.1 µM [inhibitor, single point] | –
48 | CCC(C)(C)n1nnnc1CN1CCC(NC(=O)c2ccc(Br)cc2)CC1 | – | inactive: 7.81%
49 | CCCN(CCC)C(=O)COc1cc(=O)n(CC)c2ccccc12 | inconclusive: 79.4 µM [inhibitor, partial curve, poor fit] | –
50 | O=S(=O)(c1cc(Cl)ccc1Cl)N1CCN2CCCC2C1 (configuration not stated) | – | inactive: -10.1%
51 | CC(C)(C)C1CCc2c(sc(NC(=O)c3noc4c3CCCC4)c2C#N)C1 (configuration not stated) | inconclusive: 89.1 µM [inhibitor, partial curve] | –
52 | CCOC(=O)c1ccc(NC(=O)N2CC3CCCN3c3ccccc32)cc1 (configuration not stated) | – | inactive: 1.43%
53 | CCOc1ccc(-n2c(N)c(C(=O)NCC3CCCO3)sc2=S)cc1 (configuration not stated) | active: 79.4 µM | –
54 | COc1ccccc1CNC(=O)c1cn(C)c(=O)c2cc(OC)c(OC)cc12 | inconclusive: 28.2 µM [inhibitor, single point] | –
55 | O=C(c1ccco1)N1CCN(c2nc(C3CC3)nc3sc4c(c23)CCCC4)CC1 | inconclusive: 39.8 µM [inhibitor, single point] | –
56 | CCSc1nnc(NC(=O)C(C(F)(F)F)C(F)(F)F)s1 | – | inactive: -8.93%
57 | Cc1nn(-c2ccccn2)c2nc(-c3cccs3)cc(C(=O)N3CCOCC3)c12 | inconclusive: 12.6 µM [inhibitor, partial curve, poor fit] | –
58 | S=C(NCc1ccco1)NCc1ccco1 | inconclusive: 50.1 µM [inhibitor, partial curve, poor fit] | –
59 | Cc1cc(/C(N)=N/OC(=O)c2ccccc2Cl)no1 | – | inactive: 3.11%
60 | Oc1ccc(Cl)cc1C1C=C(c2ccc3c(c2)OCO3)NC(c2cc(Br)ccc2F)N1 (configuration not stated) | inconclusive: 56.2 µM [inhibitor, partial curve, poor fit] | –
61 | CCOC(=O)C1CCN(C(=O)CCc2ccccc2)CC1 | – | inactive: -23.4%
62 | COc1ccc(CCNC(=O)c2cnc3sc(N4CCOCC4)nn3c2=O)cc1 | – | inactive: -4.28%
63 | Cc1ccccc1OCC(=O)Nc1ccc2c(c1)OCO2 | – | inactive: 18.2%
64 | Cc1ccc(-c2nc3c(c(=O)c4ccccc4n3C)c(=O)n2Cc2ccco2)cc1 | – | inactive: -16.3%
65 | COc1ccc(-n2cc(-c3ccc4c(c3)OCO4)n(CC(=O)Nc3cc(Cl)ccc3C)c2=O)cc1 | inconclusive: 89.1 µM [inhibitor, single point] | –
66 | CC(C)(Sc1ccc(CCN(CCCCC2CCCCC2)C(=O)NC2CCCCC2)cc1)C(=O)O | active: 79.4 µM and active: 39.8 µM | –
67 | COC(=O)c1ccccc1N=Nc1c(C)[nH][nH]c1=O | inconclusive: 35.5 µM [inhibitor, partial curve, poor fit] | –

In another format: results already given.

| Row | SMILES | Potency | max response, negative = inhibition |
| --- | --- | --- | --- |
| 11 | COC(=O)CCCSc1nccn1-c1ccccc1 | – | inactive: -20.1% |
| 12 | COC(=O)c1ccccc1NC(=O)c1cc2c(s1)-c1ccccc1OC2 | – | inactive: 5.37% |
| 13 | COc1cc(/C=C/C(=O)Nc2cc(S(=O)(=O)N3CCOCC3)ccc2N2CCCC2)cc(OC)c1OC | inconclusive: 89.1 µM [inhibitor, single point] | – |
| 14 | CCc1ccc(-c2cc(C(=O)Nc3ccc(S(=O)(=O)NC(C)=O)cc3)c3ccccc3n2)cc1 | inconclusive: 11.2 µM [inhibitor, partial curve, poor fit] | – |
